# Data taken from article PMC11140747.
# The chains behind the UniProt entries cited, without tags or fusion partners.
# UniProt Q9UJ70: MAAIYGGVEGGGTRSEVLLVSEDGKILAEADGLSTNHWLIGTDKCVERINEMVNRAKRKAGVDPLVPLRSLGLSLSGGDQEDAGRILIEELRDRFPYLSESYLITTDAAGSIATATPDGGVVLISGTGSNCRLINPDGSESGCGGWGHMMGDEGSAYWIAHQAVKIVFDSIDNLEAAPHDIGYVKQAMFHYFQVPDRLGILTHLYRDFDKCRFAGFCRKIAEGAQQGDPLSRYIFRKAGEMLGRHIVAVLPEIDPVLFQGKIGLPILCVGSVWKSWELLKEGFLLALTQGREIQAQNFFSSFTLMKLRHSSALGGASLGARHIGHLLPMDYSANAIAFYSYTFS
# UniProt P35637: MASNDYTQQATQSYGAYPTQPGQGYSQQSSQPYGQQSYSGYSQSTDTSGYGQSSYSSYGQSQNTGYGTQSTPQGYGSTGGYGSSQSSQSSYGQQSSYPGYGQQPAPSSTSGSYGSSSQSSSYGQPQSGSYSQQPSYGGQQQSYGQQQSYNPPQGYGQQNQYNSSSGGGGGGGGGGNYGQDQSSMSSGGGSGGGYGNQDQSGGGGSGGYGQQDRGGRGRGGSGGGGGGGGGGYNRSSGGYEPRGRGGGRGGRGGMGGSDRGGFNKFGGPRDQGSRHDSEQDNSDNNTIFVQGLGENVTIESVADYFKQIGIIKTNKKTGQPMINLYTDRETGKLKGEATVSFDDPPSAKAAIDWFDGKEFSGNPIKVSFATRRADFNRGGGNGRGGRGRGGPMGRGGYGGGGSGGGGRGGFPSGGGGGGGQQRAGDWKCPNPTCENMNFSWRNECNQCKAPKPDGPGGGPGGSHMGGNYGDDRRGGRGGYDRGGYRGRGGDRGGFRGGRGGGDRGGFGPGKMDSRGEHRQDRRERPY
# UniProt O95168: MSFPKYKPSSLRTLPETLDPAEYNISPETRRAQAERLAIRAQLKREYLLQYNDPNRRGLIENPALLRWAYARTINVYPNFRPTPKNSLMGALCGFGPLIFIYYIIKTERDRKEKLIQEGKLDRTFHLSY
# UniProt Q13049: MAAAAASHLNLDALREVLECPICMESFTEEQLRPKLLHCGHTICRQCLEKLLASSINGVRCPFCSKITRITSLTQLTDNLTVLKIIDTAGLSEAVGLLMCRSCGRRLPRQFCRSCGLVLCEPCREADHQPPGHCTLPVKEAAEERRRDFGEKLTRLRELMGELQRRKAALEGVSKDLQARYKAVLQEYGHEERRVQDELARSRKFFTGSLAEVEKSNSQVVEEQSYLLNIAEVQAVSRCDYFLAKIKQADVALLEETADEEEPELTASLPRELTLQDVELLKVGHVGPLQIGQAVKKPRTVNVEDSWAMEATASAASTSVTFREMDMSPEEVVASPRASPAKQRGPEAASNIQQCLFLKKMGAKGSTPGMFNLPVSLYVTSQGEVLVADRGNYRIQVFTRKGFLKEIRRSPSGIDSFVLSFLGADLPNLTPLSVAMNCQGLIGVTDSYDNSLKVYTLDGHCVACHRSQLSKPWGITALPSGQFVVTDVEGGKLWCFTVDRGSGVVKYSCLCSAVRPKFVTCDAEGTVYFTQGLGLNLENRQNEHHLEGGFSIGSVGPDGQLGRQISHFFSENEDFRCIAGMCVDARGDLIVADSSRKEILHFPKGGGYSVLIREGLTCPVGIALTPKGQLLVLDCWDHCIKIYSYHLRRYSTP
# UniProt P35269: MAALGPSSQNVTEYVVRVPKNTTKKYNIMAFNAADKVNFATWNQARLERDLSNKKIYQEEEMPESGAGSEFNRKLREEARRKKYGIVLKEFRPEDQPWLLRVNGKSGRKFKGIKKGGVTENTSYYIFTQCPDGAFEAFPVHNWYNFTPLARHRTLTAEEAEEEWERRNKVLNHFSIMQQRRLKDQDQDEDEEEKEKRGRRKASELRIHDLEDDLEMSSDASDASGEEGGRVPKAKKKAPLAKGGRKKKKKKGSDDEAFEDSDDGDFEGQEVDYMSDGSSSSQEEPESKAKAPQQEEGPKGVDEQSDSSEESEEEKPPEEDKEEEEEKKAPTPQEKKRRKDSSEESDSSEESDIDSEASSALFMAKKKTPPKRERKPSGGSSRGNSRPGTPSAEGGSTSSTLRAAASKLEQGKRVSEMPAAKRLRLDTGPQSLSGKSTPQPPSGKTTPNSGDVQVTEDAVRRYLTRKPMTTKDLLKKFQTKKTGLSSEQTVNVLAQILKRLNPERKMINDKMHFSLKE
# Biological target: site-specifically pyrophosphorylated N-acetylglucosamine kinase (ppS76-NAGK), His6-tagged (UniProt Q9UJ70)
# Assay: affinity purification with mass spectrometry; HEK293T lysates incubated with His6-tagged wt-NAGK or ppS76-NAGK; immobilised on nickel beads, washed, eluted with imidazole; high-resolution mass spectrometry, LFQ values of ppS76-NAGK versus wt-NAGK compared (volcano plot, thresholds log2 > 2 and -log10P > 2); only the target purified
row,Molecule,binding
1,FUS (from UniProt P35637 1-526),binds
2,NDUFB4 (from UniProt O95168 1-129),binds
3,TRIM32 (from UniProt Q13049 1-653),binds
4,"RNF111 (protein, UniProt Q6ZNA4 1-994) MSQWTPEYNELYTLKVDMKSEIPSDAPKTQESLKGILLHPEPIGAAKSFPAGVEMINSKVGNEFSHLCDDSQKQEKEMNGNQQEQEKSLVVRKKRKSQQAGPSYVQNCVKENQGILGLRQHLGTPSDEDNDSSFSDCLSSPSSSLHFGDSDTVTSDEDKEVSVRHSQTILNAKSRSHSARSHKWPRTETESVSGLLMKRPCLHGSSLRRLPCRKRFVKNNSSQRTQKQKERILMQRKKREVLARRKYALLPSSSSSSENDLSSESSSSSSTEGEEDLFVSASENHQNNPAVPSGSIDEDVVVIEASSTPQVTANEEINVTSTDSEVEIVTVGESYRSRSTLGHSRSHWSQGSSSHASRPQEPRNRSRISTVIQPLRQNAAEVVDLTVDEDEPTVVPTTSARMESQATSASINNSNPSTSEQASDTASAVTSSQPSTVSETSATLTSNSTTGTSIGDDSRRTTSSAVTETGPPAMPRLPSCCPQHSPCGGSSQNHHALGHPHTSCFQQHGHHFQHHHHHHHTPHPAVPVSPSFSDPACPVERPPQVQAPCGANSSSGTSYHEQQALPVDLSNSGIRSHGSGSFHGASAFDPCCPVSSSRAAIFGHQAAAAAPSQPLSSIDGYGSSMVAQPQPQPPPQPSLSSCRHYMPPPYASLTRPLHHQASACPHSHGNPPPQTQPPPQVDYVIPHPVHAFHSQISSHATSHPVAPPPPTHLASTAAPIPQHLPPTHQPISHHIPATAPPAQRLHPHEVMQRMEVQRRRMMQHPTRAHERPPPHPHRMHPNYGHGHHIHVPQTMSSHPRQAPERSAWELGIEAGVTAATYTPGALHPHLAHYHAPPRLHHLQLGALPLMVPDMAGYPHIRYISSGLDGTSFRGPFRGNFEELIHLEERLGNVNRGASQGTIERCTYPHKYKKVTTDWFSQRKLHCKQDGEEGTEEDTEEKCTICLSILEEGEDVRRLPCMHLFHQVCVDQWLITNKKCPICRVDIEAQLPSES",binds
5,"PRPF3 (protein, UniProt O43395 1-683) MALSKRELDELKPWIEKTVKRVLGFSEPTVVTAALNCVGKGMDKKKAADHLKPFLDDSTLRFVDKLFEAVEEGRSSRHSKSSSDRSRKRELKEVFGDDSEISKESSGVKKRRIPRFEEVEEEPEVIPGPPSESPGMLTKLQIKQMMEAATRQIEERKKQLSFISPPTPQPKTPSSSQPERLPIGNTIQPSQAATFMNDAIEKARKAAELQARIQAQLALKPGLIGNANMVGLANLHAMGIAPPKVELKDQTKPTPLILDEQGRTVDATGKEIELTHRMPTLKANIRAVKREQFKQQLKEKPSEDMESNTFFDPRVSIAPSQRQRRTFKFHDKGKFEKIAQRLRTKAQLEKLQAEISQAARKTGIHTSTRLALIAPKKELKEGDIPEIEWWDSYIIPNGFDLTEENPKREDYFGITNLVEHPAQLNPPVDNDTPVTLGVYLTKKEQKKLRRQTRREAQKELQEKVRLGLMPPPEPKVRISNLMRVLGTEAVQDPTKVEAHVRAQMAKRQKAHEEANAARKLTAEQRKVKKIKKLKEDISQGVHISVYRVRNLSNPAKKFKIEANAGQLYLTGVVVLHKDVNVVVVEGGPKAQKKFKRLMLHRIKWDEQTSNTKGDDDEESDEEAVKKTNKCVLVWEGTAKDRSFGEMKFKQCPTENMAREHFKKHGAEHYWDLALSESVLESTD",binds
6,"ATP5J (protein, UniProt P18859 33-108) NKELDPIQKLFVDKIREYKSKRQTSGGPVDASSEYQQELERELFKLKQMFGNADMNTFPTFKFEDPKFEVIEKPQA",binds

# The remaining lines, values ahead:
row,binding,Molecule
1,binds,GTF2F1 (from UniProt P35269 1-517)
2,binds,"ATP5I (protein, UniProt P56385 1-69) MVPPVQVSPLIKLGRYSALFLGVAYGATRYNYLKPRAEEERRIAAEEKKKQDELKRIARELAEDDSILK"
3,binds,"SREK1 (protein, UniProt Q8WXA9 1-508) MTSLMPGAGLLPIPTPNPLTTLGVSLSSLGAIPAAALDPNIATLGEIPQPPLMGNVDPSKIDEIRRTVYVGNLNSQTTTADQLLEFFKQVGEVKFVRMAGDETQPTRFAFVEFADQNSVPRALAFNGVMFGDRPLKINHSNNAIVKPPEMTPQAAAKELEEVMKRVREAQSFISAAIEPESGKSNERKGGRSRSHTRSKSRSSSKSHSRRKRSQSKHRSRSHNRSRSRQKDRRRSKSPHKKRSKSRERRKSRSRSHSRDKRKDTREKIKEKERVKEKDREKEREREKEREKEKERGKNKDRDKEREKDREKDKEKDREREREKEHEKDRDKEKEKEQDKEKEREKDRSKEIDEKRKKDKKSRTPPRSYNASRRSRSSSRERRRRRSRSSSRSPRTSKTIKRKSSRSPSPRSRNKKDKKREKERDHISERRERERSTSMRKSSNDRDGKEKLEKNSTSLKEKEHNKEPDSSVSKEVDDKDAPRTEENKIQHNGNCQLNEENLSTKTEAV"

# Results are given in words; binding and its absence hold for the method and conditions named. In cells and extracts the contact can be indirect. A yes stands for co-enrichment or nearness to the bait. Other partners may have been found.
